Source: US20080056997A1
Where a chain is given by its changes, count along the chain named. Results are given in words; binding and its absence hold for the method and conditions named. Some binding calls cover weakened binding; strength is not graded here.

Amino acid sequences for entries named in this document (tags omitted). Residues count along the entry.
UniProt P24821, residues 1533-1621: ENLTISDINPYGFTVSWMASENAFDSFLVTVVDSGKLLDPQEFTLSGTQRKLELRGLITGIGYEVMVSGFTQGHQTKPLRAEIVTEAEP

B1: scFv F4 (against the C domain of tenascin-C) (scFv)
scFv: EVQLVESGGGLVQPGGSLRLSCAASGFTFSGSRMGWVRQAPGKGLEWVSAINEEGGQTYYADSVKGRFTISRDNSKNTLYLQMNSLRAEDTAVYYCAKHPPHRPFDYWGQGTLVTVSRGGGGSGGGGSGGGGSSELTQDPAVSVALGQTVRITCQGDSLRLYYASWYQQKPGQAPVLVIYGKSSRPSGIPDRFSGSSSGNTASLTITGAQAEDEADYYCNSSHGPRRPVVFGGGTKLTVLG
B2: scFv G11 (against the C domain of tenascin-C) (scFv)
scFv: B1 scFv with S183N, S184N

Target: domain C of human tenascin-C (human) (UniProt P24821)
Assay: phage display selection and screening as in Example 2

Row | Binder | binding
1 | B1 | binds
2 | B2 | binds
